# According to paper PMC7819943, “Rice protein-binding microarrays: a tool to detect cis-acting elements near promoter regions in rice”:
# Protein sequences, listed by entry. Tags and fused reporters are not part of them.
# UniProt Q0JBA9, entry or part of it: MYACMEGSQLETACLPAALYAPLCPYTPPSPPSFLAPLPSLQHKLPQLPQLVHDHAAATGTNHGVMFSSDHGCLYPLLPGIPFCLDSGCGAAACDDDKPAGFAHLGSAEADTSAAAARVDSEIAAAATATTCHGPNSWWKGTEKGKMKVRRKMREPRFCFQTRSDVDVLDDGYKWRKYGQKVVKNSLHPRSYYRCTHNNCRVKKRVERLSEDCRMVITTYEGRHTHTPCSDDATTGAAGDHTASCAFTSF
# The other results are listed elsewhere or left out.
# Molecular target: OsWRKY34 (Oryza sativa, UniProt Q0JBA9 1-250)
# Assay: protein-binding microarray (RPBM); PBS, 2% BSA, 51.3 ng/ul salmon testes DNA, 50 uM zinc acetate, 200 nM TF, 25 C, 1 h; high values mean tight binding
# Details: protein: recombinant; tags: N-terminal polyhistidine and DsRed monomer fusion (pET32a); label: CyDye5-dUTP incorporated in the synthesized complementary strand; 3' TTTTT single-stranded linker to array surface; dsDNA, one strand shown
# How it was run: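 Transcription factors were each fused at the N-terminus to a polyhistidine tag plus DsRed and expressed in E. coli BL21-CodonPlus before Ni–NTA purification. Binding to a double-stranded custom Agilent array was carried out with 200 nM protein at 25 °C for 1 h in PBS, 2% BSA, salmon testes DNA and 50 µM zinc acetate. The binding signal is per-feature fluorescence intensity, in arbitrary units, on an Axon 4000B scanner.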
row,Sequence,binding signal
1,ATCTAAACGCCACGAAGTACGAAAACCAAGTCAACGCTGCCGGAGTCACCTAGTGCAG,9860 fluorescence intensity (a.u.)
2,GTGCAGTTTATACATTAACATGTTAATCCCACTTTACTACCGGAGTCACCTAGTGCAG,10300 fluorescence intensity (a.u.)
3,CGCGGCCGGCTCTCCCTATACAAGCGCCACGTCGCCGGCGCGGAGTCACCTAGTGCAG,8460 fluorescence intensity (a.u.)
4,GATCGAATTCCTTCACCGCCACACCCCACCAAGAAAAGTCCGGAGTCACCTAGTGCAG,8640 fluorescence intensity (a.u.)
5,GCAAAGGGCCGATGAATTATGGACCCGGGGTGGGGTGGGGCGGAGTCACCTAGTGCAG,16100 fluorescence intensity (a.u.)
6,CGGCACAACACAACCGCCCATAGCTGTACCGCCGCGCGCGCGGAGTCACCTAGTGCAG,10400 fluorescence intensity (a.u.)
7,CGTGTTGACCTCGTATTCGTATGCTTGGAGGGCGCTCCACCGGAGTCACCTAGTGCAG,9090 fluorescence intensity (a.u.)
8,CTCTCCCTCACGCTCTCCCAGTCCCAGCGCCGCCGTTTCCCGGAGTCACCTAGTGCAG,8930 fluorescence intensity (a.u.)
9,CATTTTCTACTCGTGCCATATGCTCTAGATCCCACATAACCGGAGTCACCTAGTGCAG,10100 fluorescence intensity (a.u.)
10,TTGGTTTGATCCATGGTTTTGTTATGTTCAGTCCACCTTGCGGAGTCACCTAGTGCAG,8040 fluorescence intensity (a.u.)
11,CACCTGACCCATTCTTGCTTACCTTATATTTAGCATACTCCGGAGTCACCTAGTGCAG,8160 fluorescence intensity (a.u.)
12,CTCGGGGTGTTGGATTTGTTCACTGCAGCGGCTTTGCCGCCGGAGTCACCTAGTGCAG,10500 fluorescence intensity (a.u.)
13,ATGCCTCTCATTGTTGATGCTTCTCTTCCTCGTTTTTGTTCGGAGTCACCTAGTGCAG,10500 fluorescence intensity (a.u.)
14,GGTGGTGGGTAGGTGCTGTTCTTATTTGGATCCTAAGACTCGGAGTCACCTAGTGCAG,12500 fluorescence intensity (a.u.)
15,AAAGAAAATTTTCTAAGAGGTTGGAGTTCTTGCTAAATTTCGGAGTCACCTAGTGCAG,8500 fluorescence intensity (a.u.)
16,CACACCATCAATCACACGTACGAGCAGTTTCCGCTTCTTTCGGAGTCACCTAGTGCAG,8290 fluorescence intensity (a.u.)
17,TGCGTTGACTTTATCTTCAAATTAATTATGTGCTAATAGGCGGAGTCACCTAGTGCAG,22300 fluorescence intensity (a.u.)
18,CTGCCACTCTTTTATCTCTATGGATGCAAGCAGGATGGGTCGGAGTCACCTAGTGCAG,9310 fluorescence intensity (a.u.)
19,CCCGTGGCGTCTGCCGGTGCGCGTCTTGTGTGACTCCTACCGGAGTCACCTAGTGCAG,8090 fluorescence intensity (a.u.)
20,GCTCCAAATTTCGTTGTTACTCCTCTCGTTGCGCTGCATGCGGAGTCACCTAGTGCAG,8800 fluorescence intensity (a.u.)
21,TCTGGTCTGGACGCTTCCTCGCATCGCGTCGTGGGCCTTCCGGAGTCACCTAGTGCAG,9900 fluorescence intensity (a.u.)

row,Sequence,binding signal
1,TCCTCCTGATCCTCATCGTATACCATCGCACAACCAACAACGGAGTCACCTAGTGCAG,9910 fluorescence intensity (a.u.)
2,GGGCTTGCTTTCTTTGGTTCACTTTTGATTTTAGAAGATACGGAGTCACCTAGTGCAG,8050 fluorescence intensity (a.u.)
3,CTCACAGGCTCACACACAGGCACACACACACTTCCCGATGCGGAGTCACCTAGTGCAG,12200 fluorescence intensity (a.u.)
4,TTTCTTTTTTCATACCCCGGTCCGCACTGTCCACCGTAGTCGGAGTCACCTAGTGCAG,8640 fluorescence intensity (a.u.)
5,CGAGTACCATTCACCATTGTACAACCAACGGCTCAGATCACGGAGTCACCTAGTGCAG,8140 fluorescence intensity (a.u.)
6,TCTTGATCCTTGTATCCCTGTATGTTGGTTAACTATTTCGCGGAGTCACCTAGTGCAG,8640 fluorescence intensity (a.u.)
7,ACTAGTAGTGGTTTGCAGTCCTGTTTGGTAGTGCGCATTTCGGAGTCACCTAGTGCAG,13900 fluorescence intensity (a.u.)
8,GGCGGGCGGTGGAATTTGTTGATGTTTGTGTGAATTTGTTCGGAGTCACCTAGTGCAG,10500 fluorescence intensity (a.u.)
9,TAATATTCTCATGATGAAGTTGGTGTGGTGGTTAAGTAGTCGGAGTCACCTAGTGCAG,8720 fluorescence intensity (a.u.)
10,ATGAAACTAATTTAGTGTTATAAGTATTGTTATATTTTTCCGGAGTCACCTAGTGCAG,8030 fluorescence intensity (a.u.)
11,AATATCCGGTATTCGAGTTTAGGGGTAATTCGATCGTCTACGGAGTCACCTAGTGCAG,8670 fluorescence intensity (a.u.)
12,GCCACATGGCTTCACCCCGTCGCACGACTTATCTGGTCCACGGAGTCACCTAGTGCAG,9510 fluorescence intensity (a.u.)
13,GATCCTCTCTGTCTTGTGCTTACCGTCGCGGCGTCGGTCGCGGAGTCACCTAGTGCAG,8950 fluorescence intensity (a.u.)
14,ACGATTCTTGCATTACTTCACCCCACGCGATTCCCTCCCCCGGAGTCACCTAGTGCAG,9980 fluorescence intensity (a.u.)
15,CCTTATCGTCATGACACGCCTCCACCGCCGGCGCTTCCATCGGAGTCACCTAGTGCAG,8110 fluorescence intensity (a.u.)
16,CTACCCACTCGCGCCGGTCATCGTCATTGTCGCCATGTCCCGGAGTCACCTAGTGCAG,10800 fluorescence intensity (a.u.)
17,CGTTGTATCGTTGCCTCTCGTCCTATCCCTATCTCATTCGCGGAGTCACCTAGTGCAG,9310 fluorescence intensity (a.u.)
18,CCACAAATTAATCCCTCATGCTCTTGGCATTTACCCACCACGGAGTCACCTAGTGCAG,8160 fluorescence intensity (a.u.)
19,GGTGAAGTCTTATAGGCATGCCTAGTCCATTGTCTTTTAGCGGAGTCACCTAGTGCAG,9220 fluorescence intensity (a.u.)
20,AAAAACGCTAACCTCCGCCATCCCCACGCCGCGCCGCCCGCGGAGTCACCTAGTGCAG,8170 fluorescence intensity (a.u.)
21,GTTCGCCACCAAGGACGCCGCCTTCATCCTCTGCTACTCCCGGAGTCACCTAGTGCAG,8550 fluorescence intensity (a.u.)

row,Sequence,binding signal
1,CACGCCTTCACCGACCGCCACTCCTGCTCGCCCGAATCGACGGAGTCACCTAGTGCAG,11000 fluorescence intensity (a.u.)
2,CCTTTCCGGCGATTTCAATTTCTCCAGTGATTCTCCGACGCGGAGTCACCTAGTGCAG,8870 fluorescence intensity (a.u.)
3,TTCTTTTCTTTTTCTTTTTCGTTTTCTTCTTATTCTTTTTCGGAGTCACCTAGTGCAG,12900 fluorescence intensity (a.u.)
4,CCGATACCGTGTTGGTTAATGTTTCTATCTTATAATCCTGCGGAGTCACCTAGTGCAG,9040 fluorescence intensity (a.u.)
5,TATCTTCCGTGCCCTTTCCGCTAGTTGACCGTTAAATTCTCGGAGTCACCTAGTGCAG,9040 fluorescence intensity (a.u.)
6,GTCAGTTTGTCGCTTTTAAATTATTGTGGCAATAACAATTCGGAGTCACCTAGTGCAG,9220 fluorescence intensity (a.u.)
7,TGCCTAGATGAATACTGCATGTTTTTTTTTTGTTTGATTTCGGAGTCACCTAGTGCAG,9620 fluorescence intensity (a.u.)
8,TCCCGTATAACCCGTCAAAGGTAATGGTCACTACTGACCACGGAGTCACCTAGTGCAG,10600 fluorescence intensity (a.u.)
9,GCCAACTTGATCCCAACTGAAATTGACTTCCTTGACCAAACGGAGTCACCTAGTGCAG,9240 fluorescence intensity (a.u.)
10,AGTTACTGAGTTAGACGTCTCAAGCTGTGTCGTGGAATAACGGAGTCACCTAGTGCAG,8700 fluorescence intensity (a.u.)
11,GTCAAACGTCTGATGTGACATCCAAAAATTTTCATTTCACCGGAGTCACCTAGTGCAG,8200 fluorescence intensity (a.u.)
12,ACGTGTACCAGCGCGCCGCCTCTGCTCTGCTCCTGAATTCCGGAGTCACCTAGTGCAG,10000 fluorescence intensity (a.u.)
13,CTTTTTCCACCAACGGACCTGTTGACCCATGTCACCACCCCGGAGTCACCTAGTGCAG,9170 fluorescence intensity (a.u.)
14,ATAGTTGTTTTGCCTACCCCACCCATGCCGAAGATGGACACGGAGTCACCTAGTGCAG,8790 fluorescence intensity (a.u.)
15,CTCTGAATCTCTGATACTACTATATTTTTCTTTGGTCGATCGGAGTCACCTAGTGCAG,8840 fluorescence intensity (a.u.)
16,CTAATTGGCCCAATTACCACAGGCCCACACCCTTTTCTTCCGGAGTCACCTAGTGCAG,8850 fluorescence intensity (a.u.)
17,TTGGTTTTCTATTCCTCTTTTCAGTTTTATCTTGTACGGTCGGAGTCACCTAGTGCAG,8620 fluorescence intensity (a.u.)
18,CTTTCATATGTATAAACAAGGTGTTATTTTATCTTTTTTTCGGAGTCACCTAGTGCAG,10600 fluorescence intensity (a.u.)
19,CTCTCTCAACTCCACCACATTTGTCTGTGTTCTTGCTGTCCGGAGTCACCTAGTGCAG,8920 fluorescence intensity (a.u.)
20,CAGTCTGCTCTTTCCTGTCTTCTCCTCCACCTTTTTATACCGGAGTCACCTAGTGCAG,9510 fluorescence intensity (a.u.)
21,CCGTATTTTAATGCACGACACCTTTGACTTTTTGATAAACCGGAGTCACCTAGTGCAG,9990 fluorescence intensity (a.u.)

row,Sequence,binding signal
1,CCTGTTGATCCCGTGTCTGTCTCTAGTGTTCTTGGCGCCTCGGAGTCACCTAGTGCAG,16300 fluorescence intensity (a.u.)
2,GACTATGCTAACTTCCATTCGAGATCTATAATTTCTTAAACGGAGTCACCTAGTGCAG,8020 fluorescence intensity (a.u.)
3,TGCCATTGCCATTGGACACATCATCGCCATTTCTGACACTCGGAGTCACCTAGTGCAG,8150 fluorescence intensity (a.u.)
4,GGTACTCTCTTCGTTTTTAGTATACGACGCCGTTGACTTTCGGAGTCACCTAGTGCAG,16000 fluorescence intensity (a.u.)
5,TGTATGTATAATGGTGTTAGTGTCGCCTTTGGGTGTGTTTCGGAGTCACCTAGTGCAG,9740 fluorescence intensity (a.u.)
6,CTCCTTCATCTCTAATCACGCACATGCAACTCACTAGCTCCGGAGTCACCTAGTGCAG,8600 fluorescence intensity (a.u.)
7,AGCTCCAGCTTCAGCTTTTGGCTTCTCCTATAGCCTCTTTCGGAGTCACCTAGTGCAG,8470 fluorescence intensity (a.u.)
8,TTCCTATCATCTAAGGTAACCCTTGGTCATCACCGATTCACGGAGTCACCTAGTGCAG,8110 fluorescence intensity (a.u.)
9,TACCTTGTTCGTTTCTTTGCAATATTCATTCCGACAAATGCGGAGTCACCTAGTGCAG,9390 fluorescence intensity (a.u.)
10,CGTCACTACCACCATTCTCTTCTTCGTCTACTTCCAGCTACGGAGTCACCTAGTGCAG,9300 fluorescence intensity (a.u.)
11,CTCTATCTGGTGATTTCTTGTGTTGGTGGGGTCCCGTACGCGGAGTCACCTAGTGCAG,13100 fluorescence intensity (a.u.)
12,CGTCGCCGGCGTCTCCCACCTGCCCGGCTGCCCTGCCCCACGGAGTCACCTAGTGCAG,8310 fluorescence intensity (a.u.)
13,AGGAAGGAGTGGGTGGGTAGGTGAGTGGAGTTGGTCGATGCGGAGTCACCTAGTGCAG,8360 fluorescence intensity (a.u.)
14,ACTCTTTTATCTCGCTCGTGCGCGTTAGTTTCGCTTCGCTCGGAGTCACCTAGTGCAG,10300 fluorescence intensity (a.u.)
15,TCTCCATTTGGCGAGGAGAGCAGAGCAGGGGAGGGGAGGGCGGAGTCACCTAGTGCAG,11500 fluorescence intensity (a.u.)
16,CGTTTTTTTCGTGGCGAGCGAGCTTGCGTCACCGGCCTTCCGGAGTCACCTAGTGCAG,13100 fluorescence intensity (a.u.)
17,AGGGGAGCCGTCAACCTTCATCGCCACTGCAGATCTTCTCCGGAGTCACCTAGTGCAG,8060 fluorescence intensity (a.u.)
18,AAGTAATCATCGCTCGTGCACTTGGATTTTTCAGTTTCCACGGAGTCACCTAGTGCAG,8660 fluorescence intensity (a.u.)
19,CATTTGTGTTGATGTGTGTTGTGCTGGCTTATTTCATGTACGGAGTCACCTAGTGCAG,14600 fluorescence intensity (a.u.)
20,TTCCCGTCCATCAGATCGGTACCGCCCCATCTTCCTCCTTCGGAGTCACCTAGTGCAG,8070 fluorescence intensity (a.u.)
21,ACCACACTACTAATTTGTACTTACTTCGTCTCAAAAATATCGGAGTCACCTAGTGCAG,8490 fluorescence intensity (a.u.)

# Looked up above.
# Entry for CCTGTTGATCCCGTGTCTGTCTCTAGTGTTCTTGGCGCCTCGGAGTCACCTAGTGCAG under binding signal: 16300 fluorescence intensity (a.u.)
# Entry for TACCTTGTTCGTTTCTTTGCAATATTCATTCCGACAAATGCGGAGTCACCTAGTGCAG under binding signal: 9390 fluorescence intensity (a.u.)
# Entry for CGTCACTACCACCATTCTCTTCTTCGTCTACTTCCAGCTACGGAGTCACCTAGTGCAG under binding signal: 9300 fluorescence intensity (a.u.)
# Entry for TGCCATTGCCATTGGACACATCATCGCCATTTCTGACACTCGGAGTCACCTAGTGCAG under binding signal: 8150 fluorescence intensity (a.u.)
